{"sequences": {"note": "The chains behind the UniProt entries cited, without tags or fusion partners.", "UniProt O75838": "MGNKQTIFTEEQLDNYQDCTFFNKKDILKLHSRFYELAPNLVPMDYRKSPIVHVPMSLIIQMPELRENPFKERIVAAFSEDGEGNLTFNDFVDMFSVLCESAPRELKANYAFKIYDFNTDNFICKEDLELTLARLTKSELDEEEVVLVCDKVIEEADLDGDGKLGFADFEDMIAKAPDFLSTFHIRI"}, "source": "paper PMC11830769", "molecular_target": "T1, human ANO1 (TMEM16A; cDNA clone IMAGE:4837404, 695 amino acids) with an HA-tag (human) (UniProt Q5XXA6)", "T1 sequence": "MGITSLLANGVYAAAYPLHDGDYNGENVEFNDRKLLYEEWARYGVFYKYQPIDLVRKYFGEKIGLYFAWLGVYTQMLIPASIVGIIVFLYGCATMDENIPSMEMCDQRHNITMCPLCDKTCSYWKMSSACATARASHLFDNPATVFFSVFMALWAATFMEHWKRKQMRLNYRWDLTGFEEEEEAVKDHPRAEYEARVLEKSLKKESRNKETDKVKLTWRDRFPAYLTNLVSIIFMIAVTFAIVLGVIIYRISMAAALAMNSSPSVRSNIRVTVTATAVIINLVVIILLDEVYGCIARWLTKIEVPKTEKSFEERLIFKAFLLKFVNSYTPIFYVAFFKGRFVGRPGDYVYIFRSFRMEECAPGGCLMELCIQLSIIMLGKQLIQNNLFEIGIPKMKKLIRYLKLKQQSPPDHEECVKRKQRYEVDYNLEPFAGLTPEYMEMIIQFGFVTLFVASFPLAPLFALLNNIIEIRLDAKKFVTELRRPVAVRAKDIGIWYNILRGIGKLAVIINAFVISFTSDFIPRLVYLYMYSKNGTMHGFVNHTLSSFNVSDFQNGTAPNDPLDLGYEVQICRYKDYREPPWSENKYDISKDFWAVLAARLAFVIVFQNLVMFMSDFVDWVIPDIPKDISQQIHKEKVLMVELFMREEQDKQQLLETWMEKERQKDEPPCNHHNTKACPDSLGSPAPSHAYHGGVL", "assay": "co-IP; transfected HEK293T cells lysed in TAP buffer (20 mM Tris-HCl pH 7.5, 150 mM NaCl, 0.5% NP-40, 1 mM EDTA); supernatant incubated with anti-HA agarose affinity gel 4 h at 4 °C; beads washed 3 times with TAP buffer; SDS-PAGE and immunoblot", "note": "These are yes or no findings as the source states them, for the method shown. Binding seen in cells or lysates may run through a third protein. Some entries that bind do so weakly or less than the wild type. Tags and fused reporters may be left off the sequences shown."}
{"substance": "human CIB2 (from UniProt O75838 1-187)", "values": [{"measurement": "binding", "value": "binds"}]}
